These results are taken from PubChem BioAssay AID493027 (The Scripps Research Institute Molecular Screening Center, 2011).

Amino acid sequences for entries named in this document (tags omitted). A change or cut given only in a name is not applied to a line headed by its entry.
UniProt O60240: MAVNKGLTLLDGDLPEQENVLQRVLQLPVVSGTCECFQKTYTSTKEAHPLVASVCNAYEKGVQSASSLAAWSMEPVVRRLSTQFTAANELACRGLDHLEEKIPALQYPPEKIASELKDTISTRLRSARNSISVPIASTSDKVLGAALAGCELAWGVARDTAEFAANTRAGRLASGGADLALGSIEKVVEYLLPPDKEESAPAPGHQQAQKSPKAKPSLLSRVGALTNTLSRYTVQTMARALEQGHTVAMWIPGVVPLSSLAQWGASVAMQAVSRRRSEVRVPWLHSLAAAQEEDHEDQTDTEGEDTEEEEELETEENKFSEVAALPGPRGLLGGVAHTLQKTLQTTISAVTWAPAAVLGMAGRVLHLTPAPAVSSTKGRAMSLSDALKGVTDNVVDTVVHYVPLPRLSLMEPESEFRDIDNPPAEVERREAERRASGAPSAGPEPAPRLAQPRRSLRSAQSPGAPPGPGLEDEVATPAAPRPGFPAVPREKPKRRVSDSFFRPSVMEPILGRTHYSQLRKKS
UniProt Q8WTS1: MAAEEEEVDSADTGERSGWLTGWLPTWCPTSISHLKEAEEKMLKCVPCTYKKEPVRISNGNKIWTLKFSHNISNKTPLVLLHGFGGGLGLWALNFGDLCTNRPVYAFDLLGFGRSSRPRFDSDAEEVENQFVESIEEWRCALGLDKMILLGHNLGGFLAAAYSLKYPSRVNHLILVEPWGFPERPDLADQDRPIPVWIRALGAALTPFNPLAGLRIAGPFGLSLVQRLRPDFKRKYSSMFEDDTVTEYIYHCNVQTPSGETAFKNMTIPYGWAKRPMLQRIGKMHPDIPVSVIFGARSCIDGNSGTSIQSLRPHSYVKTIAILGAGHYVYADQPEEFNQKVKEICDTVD

Structures are written as SMILES. Several values for one entry are separate records, joined by “and”; a condition that tells them apart may be missing. Equal entries are not always repeated. Screen size: about 2,000 compounds; about 45 (2%) were called active.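 Rule for the calls: active = inhibition above the screen-wide mean inhibition plus 3 SD (cut at about 44% in these data); inactive = the rest.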 This is one part of the list.

This assay deals with Perilipin-1 (Homo sapiens) + 1-acylglycerol-3-phosphate O-acyltransferase ABHD5 (Homo sapiens) (UniProt O60240+Q8WTS1). In words: ABHD5-PLIN1 interaction inhibitors, pilot screen, cell lysate, split luciferase complementation, luminescence, NIH validation set (AID 493027).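 Note: 0% = DMSO wells with the 100% control not disclosed.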 The settings on record: split G. princeps luciferase complementation, 4 h; at 7.9 µM, stronger effect = higher value.
Consider `COc1cccc(OC2OC3COC(C)(C)OC3C(O)C2NC(C)=O)c1` (stereo not given), for which the inhibition is inactive: -10.2%.
The same measure for `N/C(=N\OC(=O)c1ccc(Br)o1)c1ccccn1`: inactive: -7.68%; for `Cn1c(=O)[nH]c(=O)c2c1nc(Br)n2CCCO`: inactive: -6.24%.
Consider `COC(=O)c1ccc(=O)n(Cc2ccco2)c1`, for which the inhibition is inactive: 12.2%.
Consider `O=C(Nc1cccc(Oc2c(F)c(F)c(F)c(F)c2F)c1)N1C[C@@H]2C[C@@H](C1)c1cccc(=O)n1C2`, for which the inhibition was inactive: 9%.
The figure for `C=C(C)[C@@H]1CC=C(CN2CCC(N3CCC(C(=O)N4CCCC4)CC3)CC2)CC1` is inactive: -11.8%.
Take `COc1cc2c(cc1NCc1ccc3c(c1)OCO3)oc1ccccc12`: the inhibition is inactive: 0.96%.
Consider `COc1ccc(-c2noc(CCc3ccccc3)n2)cc1`, for which the inhibition was inactive: -13.1%.
Turning to `CC(C)C[C@H](NC(=O)[C@@H]1Cc2ccccc2CN1C(=O)OC(C)(C)C)C(=O)NCC1CCC(C(=O)O)CC1` (stereo not given in full), the inhibition is inactive: -6.8%.
The same measure for `Oc1[nH]c2ccccc2c1C1=NCCCC1`: inactive: -6.01%.
The figure for `Cc1nc2ccccn2c(=O)c1CCN1CCC(C(=O)c2ccc(F)cc2)CC1` is inactive: -8.54%; for `CCCn1c(=O)c2[nH]c(C3CCCC3)nc2n(CCC)c1=O` it is inactive: -3.52%.
The figure for `CCOC(=O)n1c(=O)oc2ccccc21` is inactive: -9.27%.
Regarding `O=C(CCNNC(=O)c1ccncc1)NCc1ccccc1`, the inhibition is inactive: -2.76%.
The figure for `CCNC(=S)Nc1ccc(OC(F)(F)F)cc1` is inactive: -3.96%; for `COc1cc(C(=O)Nc2cccc(-c3nnc(-c4ccco4)o3)c2)ccc1OC(C)=O` it is inactive: 6.89%; for `O=c1cc(-c2ccc3c(c2)OCCO3)oc2ccc(Cl)cc12` it is inactive: -7.19%.
The figure for `NC(=O)c1cnccn1` is inactive: -2.43%; for `CN1[C@@H]2CC(OC(=O)[C@H](CO)c3ccccc3)C[C@H]1[C@@H]1O[C@@H]12` (stereo not given in full) it is inactive: -1.86% and inactive: 1.03%.
For `O=C(NCc1ccc(N2CCCC2=O)cc1)c1ccc(F)cc1`, the inhibition was inactive: 6.92%.
The figure for `CC(=O)O[C@H]1CC[C@H]2[C@@H]3CCc4cc(O)ccc4[C@H]3CC[C@]12C` is inactive: 6.73%; for `CCCCCCCC(=O)OCC(O)CO` (stereo not given) it is inactive: -1.8%; for `OC12CCCCC1C(c1ccc3c(c1)OCO3)N(Cc1cccc(F)c1)CC2` (stereo not given) it is inactive: -3.42%.
In the case of `CC(=O)NCCCC(=O)NC(CCC(=O)OCc1ccccc1)C(=O)OCc1ccccc1` (stereo not given), the inhibition is inactive: -3.23%.
The same measure for `O=c1n(CCCN2CCN(c3cccc(Cl)c3)CC2)nc2ccccn12`: inactive: -2.6%; for `CC12CCC(C(=O)NNc3ccccc3)(C(=O)C1=O)C2(C)C` (stereo not given): inactive: 3.25%; for `Cc1cc(O)c2/c(=N\N)c(-c3csc(C)n3)coc2c1`: inactive: 5.2%.
The figure for `CC1(C)S[C@@H]2[C@H](NC(=O)[C@H](N)c3ccccc3)C(=O)N2[C@H]1C(=O)O` is inactive: -3.49% and inactive: -7.07%.
For `CCN(CC)c1ccc(C2=NNC(=O)CC2C)cc1[N+](=O)[O-]` (stereo not given), the inhibition was inactive: -6.85%.
The same measure for `C[C@@H]1C[C@H](Nc2ccccc2)c2ccccc2N1C(=O)c1cccnc1`: inactive: -8.75%; for `O=[N+]([O-])c1cc(/C=N/n2cnnc2)ccc1N1CCCC1`: inactive: 3.29%.
The same measure for `COc1ccc2cc([C@H](C)C(=O)O)ccc2c1`: inactive: -2.18%; for `Cc1ncc([N+](=O)[O-])n1CC(C)O` (stereo not given): inactive: -5.37%.
The same measure for `COc1ccc(-c2cc3cc(OC)c(OC)cc3c(C)n2)cc1`: inactive: 2.61%; for `C/C=C(/C(=C/C)c1ccc(O)cc1)c1ccc(O)cc1`: inactive: 22.1%; for `O=C(Nc1ccc(Oc2c(F)c(F)c(F)c(F)c2F)cc1)OC1CCN2Cc3ccccc3N=C12` (stereo not given): active: 71.9%.
On to `CCOc1ccc(C(=O)NCC2(c3ccccc3)CCOCC2)cc1`, for which the inhibition was inactive: -2.44%.
The figure for `COc1ccc(-c2[nH]ncc2CN(CCO)Cc2cccs2)c(F)c1` is inactive: -7.46%.
The same measure for `CCOC(=O)C1CCCN(Cc2nc(Cc3cccc(F)c3)no2)C1` (stereo not given): inactive: -4.38%; for `N#C/C(=C\c1ccc(O)c(O)c1)C(=O)NCCCc1ccccc1`: inactive: 37.9%.
The figure for `CCNCCC(CCC(C)C)c1ccc2c(c1)OCO2` (stereo not given) is inactive: 5.59%; for `C/C(NC(=O)c1cccs1)=C1\C(=O)C[C@@H]2[C@H]1C2(C)C` it is inactive: 4.46%; for `O=P(c1ccccc1)(c1ccccc1)c1nc(-c2ccc(Cl)cc2)oc1N1CCOCC1` it is inactive: 2.59%.
On to `Cc1cc(/C=N/O)c(C)n1-c1ccc(Br)cc1`, for which the inhibition was inactive: 6.12%.
The figure for `O=C(O)c1ccccc1O` is inactive: -6.1%; for `CCOc1ccc2nc(S(N)(=O)=O)sc2c1` it is inactive: -10.4%; for `Nc1ccc(N)c(C(=O)O)c1` it is inactive: -12.6%.
The same measure for `CN1CCCN(C(c2ccccc2)c2ccc(Cl)cc2)CC1` (stereo not given): inactive: 6.39%; for `COC(=O)C1[C@H]2C(=O)N(Cc3cccs3)C[C@]23C=C[C@H]1O3` (stereo not given in full): inactive: -5.63%.
For the compound `CC(C)OC(=O)C(C)(C)Oc1ccc(C(=O)c2ccc(Cl)cc2)cc1`, the inhibition was inactive: -11.3%.
`CC(C)NC(=O)C1(c2ccccc2)CCOCC1`: the inhibition was inactive: 0.25%.
The same measure for `COc1cc(C2C(C(C)=O)=C(O)C(=O)N2c2ccc(C)cc2)ccc1O` (stereo not given): inactive: -3.68%.
The same measure for `CC(C)=CCC/C(C)=C/CC/C(C)=N/O`: inactive: -4.49%; for `O=C(Nc1ccccc1)OCC1CCCN2CCCCC12` (stereo not given): inactive: -5.9%.
Take `CC1(C)NC(C(=O)O)Cc2c1[nH]c1ccccc21` (stereo not given): the inhibition was inactive: -8.61%.
On to `COc1ccc2cc(-c3nc4ccccc4n3C)c(=O)oc2c1`, for which the inhibition is inactive: -4.01%.
On to `COC(=O)CCC(=O)CN`, for which the inhibition is inactive: -0.84%.
The same measure for `CCc1cc(=O)oc2cc(C)c(CN3CCCC(C)C3)c(O)c12` (stereo not given): inactive: 13.8%.
On to `CC(=O)c1c(C)[nH]c(C(=O)OCc2ccccc2)c1C`, for which the inhibition is inactive: -7.75%.
The figure for `COc1cccc(/C=C/C(=O)c2c(O)cc(C)oc2=O)c1O` is active: 47.8%.
As for `COc1ccccc1/C=C/C(=O)c1c2c(c(C)[nH]c1=O)CCCC2`, the inhibition was inactive: 28.8%.
The figure for `CCN1C(=O)C(CC(=O)Nc2ccc(F)cc2)N(Cc2ccc3c(c2)OCO3)C1=S` (stereo not given) is inactive: 4.73%; for `CN(C)CCOc1ccc(Cl)cc1C(C)(C)C` it is inactive: -6.24%; for `O=C(O)C1CSC(c2ccco2)N1` (stereo not given) it is inactive: 14%.
In the case of `CC(C)(C)N1NC2(CCCCC2)NC1=S`, the inhibition is inactive: -12.9%.
For the compound `COc1ccc(CC(=O)Nc2cccc(C(=O)Nc3ccccc3C(=O)O)c2)cc1OC`, the inhibition was inactive: -0.1%.
As to `CC(=O)C1=C(NC(=O)c2ccc(C(F)(F)F)cc2)C[C@@H]2[C@H]1C2(C)C`, the inhibition was inactive: -18.5%.
Turning to `CSCC[C@H](NC(=O)NC1CCCC1)C(=O)O`, the inhibition is inactive: 1.38%.
The figure for `COc1ccc2c(C=O)cn(C)c2c1` is inactive: -6.17%; for `COc1ccc(-c2cc(=O)oc3cc(OC(C)C(=O)O)ccc23)cc1` (stereo not given) it is inactive: -3.57%; for `Cc1c(Cc2ccccc2)c(=O)oc2c(CN(C)C)c(O)c(Cl)cc12` it is inactive: 4.84%.
The figure for `CC(C)CC(NC(=O)CNC(=O)C1O[C@@H]2OC(C)(C)O[C@@H]2[C@H]2OC(C)(C)O[C@@H]12)C(=O)O` (stereo not given in full) is inactive: -0.05%; for `COC(=O)[C@H]1[C@H]2C[C@@H]3c4[nH]c5cc(OC)ccc5c4CCN3C[C@H]2C[C@@H](OC(=O)c2ccc(N)cc2)[C@@H]1OC` it is inactive: 12.1%.
Consider `OCCN(CCO)c1nc(N2CCCCC2)c2nc(N(CCO)CCO)nc(N3CCCCC3)c2n1`, for which the inhibition is inactive: 8.79%.
The figure for `Cc1ccc(C2CC(=O)C(C=NCCN3CCN(CC(=O)Nc4cc(C)cc(C)c4)CC3)=C(O)C2)cc1` (stereo not given) is inactive: -0.07%; for `CC(C)C12CN3CC(C(C)C)(CN(C1)C3c1ccccc1)C2O` (stereo not given) it is inactive: -10.6%.
The figure for `CC(=O)C1=C(Nc2ccc(C)cc2)CC(C)(O)C(C(C)=O)C1c1ccco1` (stereo not given) is inactive: 5.83%; for `O=[N+]([O-])c1ccc2cn[nH]c2c1` it is inactive: 0.45%; for `CCn1c(=N)c(C(=O)NC)cc2c(=O)n3cccc(C)c3nc21` it is inactive: -12.9%.
The figure for `COc1ccc(C(=O)NC(=O)NC2(C(Cl)(Cl)Cl)OCCO2)cc1` is inactive: -6.58%; for `Cc1ccc(CSCC(=O)NCCCN2CCOCC2)cc1` it is inactive: -1.33%; for `O=C1N[C@@H](Cc2cnc[nH]2)C(=O)N2CCC[C@@H]12` it is inactive: -11.4%.
With `C[C@@H]1C[C@H]2[C@@H]3CCC4=CC(=O)C=C[C@]4(C)[C@@]3(F)[C@@H](O)C[C@]2(C)[C@@]1(O)C(=O)COP(=O)(O)O`, the inhibition is inactive: -10.7%.
With `Nc1nc(Cl)nc2c1ncn2[C@@H]1O[C@H](CO)[C@@H](O)[C@H]1O`, the inhibition is inactive: -5.45%.
The figure for `CCOC(=O)c1oc2cc(O)cc(C)c2c(=O)c1-c1cscn1` is inactive: 6.32%; for `COc1ccc(N2C(=O)C3C(C2=O)C(C(=O)c2ccccc2)N2CCCC32)cc1` (stereo not given) it is inactive: 15.9%.
As to `COc1cccc(C2CCCN2Cc2nc(CCC(C)C)no2)c1` (stereo not given), the inhibition is inactive: -12.7%.
The figure for `NC(=O)C1CCCNC1` (stereo not given) is inactive: -18.5%.
As for `CCCCOn1c(C)c(C(C)=O)c2c3no[n+]([O-])c3ccc21`, the inhibition was inactive: -2.36%.
The same measure for `CC(C)COC(=O)C1C(=O)CC(C)(O)C(C(=O)OCC(C)C)C1c1cccnc1` (stereo not given): inactive: -3.21%; for `Cc1cc(=O)oc2c(CN(C)Cc3ccccc3)c(O)ccc12`: inactive: -5.21%.
In the case of `O=C(O)c1ccc(-c2ccc(O)c(F)c2)cc1`, the inhibition is inactive: -1.99%.
On to `Cn1cc(CN2CCCC(CO)(Cc3cccc(Cl)c3)C2)cn1` (stereo not given), for which the inhibition was inactive: -10.7%.
As for `O=C1CC(c2ccc(O)cc2)Oc2cc(O)cc(O)c21` (stereo not given), the inhibition is inactive: 0.6%.
The figure for `Cc1cn([C@H]2C=C[C@@H](CO)O2)c(=O)[nH]c1=O` is inactive: -3.68%.

One may read the inhibition as the relative decrease from the control value, in per cent.
